Tested on: E. coli ATCC 25922
Assay: RNA-seq transcriptome response
Type: cell-based, Escherichia coli
Conditions: 4× MIC, 2 hours, vs untreated
Procedure: After exposure, 1-ml aliquots of cells were immediately pelleted at 4°C by centrifugation for 2 min at 2000 rpm. The supernatants were removed and immediately frozen in liquid nitrogen. The samples were stored at −80°C for later total RNA isolation. Total RNA was extracted using the bacterial RNA kit (Omega Bio-Tek, USA) according to the manufacturer’s instructions. The RNA integrity number values were obtained to assess RNA quality using an Agilent Genomics 2200 Tape Station instrument.
A total amount of 2 to 5 ng of the RNA per sample was executed as the input material to construct each cDNA library for RNA-seq using the NEBNext Ultra Directional RNA Library prep kit from Illumina. The quality of the resulting libraries was checked using Agilent High Sensitivity DNA chips to ensure proper library size distribution and the absence of small adapters.
Read mapping was aligned using Bowtie2 ([74]). HTSeq v0.6.1 was used for quantification of expression levels ([75]). DESeq2 on the R package (v1.12.4) was used to calculate DEGs. Differential expression was computed using edgeR: exactTest for each treatment versus the untreated control ([76]). The E. coli database used for mapping was GCF_017357505.1_ASM1735750v1_genomic.fna. Both the GO and KEGG (KEGG Ortholog database) enrichment analyses were done with the Fisher’s exact test. […]

With O=C(O)c1cn(C2CC2)c2cc(N3CCNCC3)c(F)cc2c1=O [CPF, ciprofloxacin, reference compound] the “Log2FC cspE (transcription antiterminator/RNA stability regulator CspE)” value was -1.4229 and the “Log2FC holC (DNA polymerase III subunit chi)” value was 1.1039.

— paper PMC11881906, “Development of xanthone derivatives as effective broad-spectrum antimicrobials: Disrupting cell wall and inhibiting DNA synthesis” (Science Advances, 2025)
